Measurements from patent US20030162221A1.
Results are given in words; binding and its absence hold for the method and conditions named. Binding seen in cells or lysates may run through a third protein. Some binding calls cover weakened binding; strength is not graded here. For part of these data: Where a sequence is shown, tags or fusion partners need not be part of it.

Sequences of proteins named here, by UniProt entry; tags and fusion partners are left off. Residues count along the entry.
UniProt P16892: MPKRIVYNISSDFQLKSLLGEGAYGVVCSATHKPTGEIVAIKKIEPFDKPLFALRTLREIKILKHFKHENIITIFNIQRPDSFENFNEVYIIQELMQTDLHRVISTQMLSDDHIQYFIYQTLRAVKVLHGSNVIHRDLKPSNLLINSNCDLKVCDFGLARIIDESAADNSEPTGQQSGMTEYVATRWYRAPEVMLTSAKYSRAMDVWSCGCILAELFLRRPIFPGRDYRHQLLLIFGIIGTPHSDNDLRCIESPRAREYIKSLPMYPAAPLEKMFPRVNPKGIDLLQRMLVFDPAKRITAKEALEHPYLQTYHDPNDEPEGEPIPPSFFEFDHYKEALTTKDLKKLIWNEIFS
UniProt P52286, residues 2-194: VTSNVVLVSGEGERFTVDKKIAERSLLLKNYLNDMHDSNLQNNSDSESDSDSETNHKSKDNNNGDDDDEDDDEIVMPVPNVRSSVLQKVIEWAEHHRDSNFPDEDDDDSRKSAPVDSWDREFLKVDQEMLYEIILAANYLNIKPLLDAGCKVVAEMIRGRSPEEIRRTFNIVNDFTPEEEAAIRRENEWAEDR

T1: Slt2 (Saccharomyces cerevisiae) (UniProt Q00772)
T1 sequence (looked up): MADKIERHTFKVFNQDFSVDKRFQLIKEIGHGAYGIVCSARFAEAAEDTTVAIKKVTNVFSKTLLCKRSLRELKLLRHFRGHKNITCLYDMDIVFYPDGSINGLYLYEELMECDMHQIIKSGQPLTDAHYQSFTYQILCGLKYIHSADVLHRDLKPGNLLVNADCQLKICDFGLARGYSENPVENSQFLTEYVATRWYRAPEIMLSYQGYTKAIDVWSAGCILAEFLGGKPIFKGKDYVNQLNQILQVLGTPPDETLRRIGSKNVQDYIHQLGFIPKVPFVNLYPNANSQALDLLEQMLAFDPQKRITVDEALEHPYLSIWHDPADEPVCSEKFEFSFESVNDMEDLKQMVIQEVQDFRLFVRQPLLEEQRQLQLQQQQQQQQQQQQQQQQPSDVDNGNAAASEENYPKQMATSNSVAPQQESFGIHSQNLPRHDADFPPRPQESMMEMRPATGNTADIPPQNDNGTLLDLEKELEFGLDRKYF

T2: Kss1 (Saccharomyces cerevisiae) (UniProt P14681)
T2 sequence (looked up): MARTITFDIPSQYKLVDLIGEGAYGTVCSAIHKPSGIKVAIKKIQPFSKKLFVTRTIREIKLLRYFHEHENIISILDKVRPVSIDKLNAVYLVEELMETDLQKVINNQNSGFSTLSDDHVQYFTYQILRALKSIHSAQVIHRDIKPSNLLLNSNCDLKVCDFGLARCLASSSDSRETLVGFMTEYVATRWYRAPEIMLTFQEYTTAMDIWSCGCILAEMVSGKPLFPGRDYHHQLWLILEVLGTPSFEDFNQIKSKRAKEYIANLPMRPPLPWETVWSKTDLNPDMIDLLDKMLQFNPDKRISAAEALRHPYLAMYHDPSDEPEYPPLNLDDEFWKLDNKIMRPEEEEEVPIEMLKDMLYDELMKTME

T3: Rub1 (Saccharomyces cerevisiae) (UniProt Q03919)
T3 sequence (looked up): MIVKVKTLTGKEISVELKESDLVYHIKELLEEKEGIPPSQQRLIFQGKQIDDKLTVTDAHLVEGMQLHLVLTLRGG

T4: Met31 (Saccharomyces cerevisiae) (UniProt Q03081)
T4 sequence (looked up): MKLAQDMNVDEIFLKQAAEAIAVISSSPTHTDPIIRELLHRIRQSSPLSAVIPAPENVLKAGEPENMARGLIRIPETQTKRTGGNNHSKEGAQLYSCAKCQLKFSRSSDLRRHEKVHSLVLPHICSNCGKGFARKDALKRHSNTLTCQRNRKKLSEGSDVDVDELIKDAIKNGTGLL

T5: Met4 (Saccharomyces cerevisiae) (UniProt P32389)
T5 sequence (looked up): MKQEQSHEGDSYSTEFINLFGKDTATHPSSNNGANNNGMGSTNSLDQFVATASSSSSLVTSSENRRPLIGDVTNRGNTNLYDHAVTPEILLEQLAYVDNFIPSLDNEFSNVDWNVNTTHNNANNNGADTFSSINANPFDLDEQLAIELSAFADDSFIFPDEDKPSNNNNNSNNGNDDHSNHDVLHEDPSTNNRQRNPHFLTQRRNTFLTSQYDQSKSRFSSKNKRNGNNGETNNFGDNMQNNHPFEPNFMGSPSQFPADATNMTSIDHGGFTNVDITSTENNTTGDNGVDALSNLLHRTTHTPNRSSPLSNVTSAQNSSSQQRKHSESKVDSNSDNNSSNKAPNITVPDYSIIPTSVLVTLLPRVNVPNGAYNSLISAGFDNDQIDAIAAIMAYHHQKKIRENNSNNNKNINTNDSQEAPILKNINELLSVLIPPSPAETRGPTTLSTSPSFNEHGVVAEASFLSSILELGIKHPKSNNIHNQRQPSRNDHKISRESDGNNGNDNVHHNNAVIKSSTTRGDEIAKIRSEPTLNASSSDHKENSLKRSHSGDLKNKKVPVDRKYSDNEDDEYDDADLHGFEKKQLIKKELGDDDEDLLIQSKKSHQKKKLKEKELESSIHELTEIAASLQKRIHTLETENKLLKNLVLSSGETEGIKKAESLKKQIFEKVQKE

T6: Hrt1 (Saccharomyces cerevisiae) (UniProt Q08273)
T6 sequence (looked up): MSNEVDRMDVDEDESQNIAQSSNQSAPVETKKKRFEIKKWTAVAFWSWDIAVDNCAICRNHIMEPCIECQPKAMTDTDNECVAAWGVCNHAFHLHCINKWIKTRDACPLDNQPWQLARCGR

T7: Cdc53 (Saccharomyces cerevisiae) (UniProt Q12018)
T7 sequence (looked up): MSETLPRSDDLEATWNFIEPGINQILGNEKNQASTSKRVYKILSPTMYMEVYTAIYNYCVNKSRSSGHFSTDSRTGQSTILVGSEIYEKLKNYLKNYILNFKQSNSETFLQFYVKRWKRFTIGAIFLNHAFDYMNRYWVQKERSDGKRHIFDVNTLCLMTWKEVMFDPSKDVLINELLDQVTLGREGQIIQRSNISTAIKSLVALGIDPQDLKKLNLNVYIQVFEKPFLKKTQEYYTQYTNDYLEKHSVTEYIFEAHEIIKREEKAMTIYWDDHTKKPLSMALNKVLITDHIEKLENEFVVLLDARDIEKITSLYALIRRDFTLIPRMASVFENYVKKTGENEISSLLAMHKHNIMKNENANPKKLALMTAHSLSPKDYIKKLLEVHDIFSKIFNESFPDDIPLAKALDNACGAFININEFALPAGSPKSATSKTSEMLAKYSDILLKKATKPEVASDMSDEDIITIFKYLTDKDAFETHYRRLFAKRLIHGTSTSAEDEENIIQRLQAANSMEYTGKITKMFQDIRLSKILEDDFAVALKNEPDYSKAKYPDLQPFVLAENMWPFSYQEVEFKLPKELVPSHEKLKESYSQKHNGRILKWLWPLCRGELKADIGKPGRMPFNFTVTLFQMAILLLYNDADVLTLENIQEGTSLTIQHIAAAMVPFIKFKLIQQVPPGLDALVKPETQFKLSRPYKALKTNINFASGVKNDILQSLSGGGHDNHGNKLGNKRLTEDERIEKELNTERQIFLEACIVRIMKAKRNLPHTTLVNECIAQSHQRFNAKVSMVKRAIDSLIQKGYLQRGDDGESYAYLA


What was measured:
[1] = target: T1, Slt2 (Saccharomyces cerevisiae); assay: anti-FLAG co-IP, LC-MS/MS
[2] = target: Fus3 (Saccharomyces cerevisiae) (UniProt P16892); assay: anti-FLAG co-IP, LC-MS/MS
[3] = target: T2, Kss1 (Saccharomyces cerevisiae); assay: anti-FLAG co-IP, LC-MS/MS
[4] = target: T3, Rub1 (Saccharomyces cerevisiae); assay: anti-FLAG co-IP, LC-MS/MS; bait Met30 by Table 2
[5] = target: T4, Met31 (Saccharomyces cerevisiae); assay: anti-FLAG co-IP, LC-MS/MS; bait Met30 by Table 2
[6] = target: Skp1 (Saccharomyces cerevisiae) (UniProt P52286); assay: anti-FLAG co-IP, LC-MS/MS; bait Met30 by Table 2
[7] = target: T5, Met4 (Saccharomyces cerevisiae); assay: anti-FLAG co-IP, LC-MS/MS; bait Met30 by Table 2
[8] = target: T6, Hrt1 (Saccharomyces cerevisiae); assay: anti-FLAG co-IP, LC-MS/MS; bait Met30 by Table 2
[9] = target: T7, Cdc53 (Saccharomyces cerevisiae); assay: anti-FLAG co-IP, LC-MS/MS; bait Met30 by Table 2
[10] = target: T3, Rub1 (Saccharomyces cerevisiae); assay: anti-FLAG co-IP, LC-MS/MS
[11] = target: T4, Met31 (Saccharomyces cerevisiae); assay: anti-FLAG co-IP, LC-MS/MS
[12] = target: Skp1 (Saccharomyces cerevisiae) (UniProt P52286); assay: anti-FLAG co-IP, LC-MS/MS
[13] = target: T5, Met4 (Saccharomyces cerevisiae); assay: anti-FLAG co-IP, LC-MS/MS
[14] = target: T6, Hrt1 (Saccharomyces cerevisiae); assay: anti-FLAG co-IP, LC-MS/MS
[15] = target: T7, Cdc53 (Saccharomyces cerevisiae); assay: anti-FLAG co-IP, LC-MS/MS

| binding [1] | binding [2] | binding [3] | binding [4] | binding [5] | binding [6] | binding [7] | binding [8] | binding [9] | binding [10] | binding [11] | binding [12] | binding [13] | binding [14] | binding [15] | Binder |
| --- | --- | --- | --- | --- | --- | --- | --- | --- | --- | --- | --- | --- | --- | --- | --- |
| binds | binds | binds |  |  |  |  |  |  |  |  |  |  |  |  | Msg5 (protein, Saccharomyces cerevisiae, UniProt P38590 1-489, looked up) MQFHSDKQHLDSKTDIDFKPNSPRSLQNRNTKNLSLDIAALHPLMEFSSPSQDVPGSVKFPSPTPLNLFMKPKPIVLEKCPPKVSPRPTPPSLSMRRSEASIYTLPTSLKNRTVSPSVYTKSSTVSSISKLSSSSPLSSFSEKPHLNRVHSLSVKTKDLKLKGIRGRSQTISGLETSTPISSTREGTLDSTDVNRFSNQKNMQTTLIFPEEDSDLNIDMVHAEIYQRTVYLDGPLLVLPPNLYLYSEPKLEDILSFDLVINVAKEIPNLEFLIPPEMAHKIKYYHIEWTHTSKIVKDLSRLTRIIHTAHSQGKKILVHCQCGVSRSASLIVAYIMRYYGLSLNDAYNKLKGVAKDISPNMGLIFQLMEWGTMLSKNSPGEEGETVHMPEEDDIGNNEVSSTTKSYSSASFRSFPMVTNLSSSPNDSSVNSSEVTPRTPATLTGARTALATERGEDDEHCKSLSQPADSLEASVDNESISTAPEQMMFLP |
|  |  |  | binds | binds | binds | binds | binds | binds | binds | binds | binds | binds | binds | binds | Met30 (protein, Saccharomyces cerevisiae, UniProt P39014 1-640, looked up) MRRERQRMMSFEDKDKDDLDNSNSNNSSEMTDTAMMPPLKRLLITGSSDDLAQGSSGKKKMTMATRSPSSSPDLATNDSGTRVQPLPEYNFTKFCYRHNPDIQFSPTHTACYKQDLKRTQEINANIAKLPLQEQSDIHHIISKYSNSNDKIRKLILDGILSTSCFPQLSYISSLVTHMIKIDFISILPQELSLKILSYLDCQSLCNATRVCRKWQKLADDDRVWYHMCEQHIDRKCPNCGWGLPLLHMKRARIQQNSTGSSSNADIQTQTTRPWKVIYRERFKVESNWRKGHCRIQEFKGHMDGVLTLQFNYRLLFTGSYDSTIGIWDLFTGKLIRRLSGHSDGVKTLYFDDRKLITGSLDKTIRVWNYITGECISTYRGHSDSVLSVDSYQKVIVSGSADKTVKVWHVESRTCYTLRGHTEWVNCVKLHPKSFSCFSCSDDTTIRMWDIRTNSCLKVFRGHVGQVQKIIPLTIKDVENLATDNTSDGSSPQDDPTMTDGADESDTPSNEQETVLDENIPYPTHLLSCGLDNTIKLWDVKTGKCIRTQFGHVEGVWDIAADNFRIISGSHDGSIKVWDLQSGKCMHTFNGRRLQRETQHTQTQSLGDKVAPIACVCIGDSECFSGDEFGCVKMYKFDLND |
